In the odorant receptor screen of Mainland et al. (2015):
“And” between values parts separate entries of the source, which are not always exact repeats. Equal values may be shown once. The list shows a part of the results. Each value is one well over the wells without odorant, computed here; the data are noisy.

What was measured:
Test in all cases: odorant receptor activation (CRE luciferase / Renilla) (fold of no-odor wells); higher = more activation
Details in all cases: 100 µM
[1] = tested on: OR52B2 clone 1210
[2] = tested on: OR52B4 clone 1508
[3] = tested on: OR52B6 T36A/L90H/A146T/H149R/V267I clone 1306
[4] = tested on: OR52D1 clone 1164
[5] = tested on: OR52E1 clone 1113
[6] = tested on: OR52E2 H174R/R264C clone 1184
[7] = tested on: OR52E4 V176I/R184M/R228H clone 1123
[8] = tested on: OR52E5 P234L clone 1124
[9] = tested on: OR52E6 clone 1196
[10] = tested on: OR52E8 clone 1154

| Compound | odorant receptor activation [1] | odorant receptor activation [2] | odorant receptor activation [3] | odorant receptor activation [4] | odorant receptor activation [5] | odorant receptor activation [6] | odorant receptor activation [7] | odorant receptor activation [8] | odorant receptor activation [9] | odorant receptor activation [10] |
| --- | --- | --- | --- | --- | --- | --- | --- | --- | --- | --- |
| C=CC(C)(O)CCC=C(C)C (stereo not given) [linalool] | 0.951 | 0.862 | 0.178 | 1.04 | 1.07 | 1.15 | 1.06 | 0.955 | 1 | 0.941 |
| C=C(C)C1CC=CCC1 (stereo not given) [r-limonene] | 1.07 and 0.362 | 0.921 and 0.52 and 0.838 | 0.895 and 0.315 | 1.13 and 0.392 | 1.04 and 0.856 | 0.833 and 0.388 | 1.07 | 0.749 | 1.12 and 0.536 | 1.11 and 0.468 |
| O=C1CCCCCCCCCCCC(=O)OCCO1 [ethylene brassylate] | 1.79 | 1.1 | 1.21 | 1.86 | 1.14 | 1.41 | 0.917 | 1.33 | 1.8 | 1.55 |
| CC12CCC(C1)C(C)(C)C2=O (stereo not given) [fenchone] | 0.961 | 1.03 | 0.804 | 0.774 | 0.889 | 0.87 | 1.5 | 1.78 | 1.46 | 1.04 |
| CCCCCCCCC=O [nonyl aldehyde] | 0.845 | 0.928 | 0.179 | 1.13 | 0.947 | 1.06 | 1.12 | 0.984 | 1.1 | 0.942 |
| CCCCCCCC=CC=O [2-decenal] | 0.686 | 1.88 | 1.3 | 1.03 | 10.7 | 0.579 | 1.18 | 0.935 | 1.43 | 1.14 |
| C=CCc1ccc(OC(C)=O)c(OC)c1 [eugenol acetate] | 1.66 | 1.66 | 1.32 | 1.6 | 1.51 | 1.74 | 0.898 | 1.23 | 1.94 | 1.73 |
| CC(C)=CCCC(C)=CC=O [citral] | 1.03 | 0.968 | 1.17 | 0.989 | 0.966 | 1.04 | 1.01 | 1.33 | 0.971 | 1.31 |
| CCCCCCCCOC(C)=O [octyl acetate] | 0.756 | 0.976 | 0.202 | 0.931 | 1.02 | 1.01 | 1.06 | 0.736 | 1.07 | 0.86 |
| CCC1(O)C2(C)CCC(C2)C1(C)C (stereo not given) [2-ethylfenchol] | 0.833 | 1.06 | 0.952 | 0.719 | 10.5 | 1.13 | 1.03 | 0.779 | 1.29 | 0.815 |
| CCCC(=O)O [butyric acid] | 0.981 | 1.19 | 0.976 | 0.82 | 0.938 | 0.985 | 1.11 | 1.16 | 1.06 | 1.03 |
| CCCCCC(=O)O [caproic acid] | 1 | 1.12 | 1 | 0.701 | 0.917 | 0.896 | 0.916 | 0.78 | 1.05 | 1.01 |
| C=C(C)C1CC=C(C)C(=O)C1 (stereo not given) [r-carvone] | 0.68 | 0.913 | 0.756 | 1.07 | 0.868 | 0.824 | 1.12 | 0.893 | 1.01 | 0.918 |
| CC(=O)OC1CC2CCC1(C)C2(C)C (stereo not given) [isobornyl acetate] | 1.2 | 0.453 and 1.02 | 1.03 and 0.975 | 0.673 | 0.795 | 1.07 | 0.805 | 0.736 | 1.26 | 0.917 |
| CC1CCC(C(C)C)C(O)C1 (single isomer, unassigned; (-)) [(-)-menthol] | 0.972 | 4.26 | 0.809 | 1.09 | 10.4 | 0.733 | 1.08 | 0.715 | 1.46 | 1.08 |
| CCCCO [1-butanol] | 0.863 | 1.2 | 0.983 | 1.13 | 7.27 | 0.63 | 0.865 | 0.838 | 1.12 | 0.959 |
| c1cnccn1 [pyrazine] | 0.869 | 0.693 | 0.784 | 1.08 | 0.99 | 0.768 | 1.11 | 0.878 | 0.98 | 1.15 |
| CC12CCC(CC1)C(C)(C)O2 [cineole] | 0.782 | 0.776 | 0.845 | 0.573 | 0.741 | 0.731 | 0.889 | 0.901 | 0.827 | 0.953 |
| COc1cc(C)ccc1O [2-methoxy-4-methylphenol] | 1.1 | 0.744 | 1.02 | 1.38 | 5.06 | 0.7 | 0.723 | 0.898 | 1.75 | 1.01 |
| C=CCSCC=C [diallyl sulfide] | 1.36 | 1.32 | 0.876 | 0.826 | 0.836 | 0.916 | 1.14 | 1.59 | 1.07 | 1.03 |
| CC/C=C\CCO [cis-3-hexen-1-ol] | 0.855 | 1 | 0.927 | 0.811 | 0.754 | 1.06 | 1 | 0.972 | 1.07 | 1.12 |
| CCCCCCCCCCC=O [undecanal] | 0.954 | 1.09 | 1.04 | 1.06 | 0.88 | 0.874 | 1.01 | 0.939 | 0.786 | 0.984 |
| CC1=CCC(C(C)(C)O)CC1 (stereo not given) [terpineol] | 1.09 | 0.7 | 1.13 | 1.35 | 1.05 | 0.932 | 0.884 | 0.824 | 1.01 | 1.17 |
| C=CCc1ccc(OC)c(OC)c1 [eugenol methyl ether] | 1.33 | 1.39 | 1.14 | 1.36 | 1.22 | 1.35 | 1.99 | 1.83 | 1.4 | 1.5 |
| CC(=O)OC(C)(C)C1CC=C(C)CC1 (stereo not given) [terpinyl acetate] | 0.948 | 0.906 | 0.999 | 1.66 | 1.27 | 0.896 | 0.822 | 0.811 | 1.11 | 1.58 |
| CC=Cc1ccc(O)c(OC)c1 [isoeugenol] | 2.11 | 0.976 and 2.57 | 1.13 and 1.36 | 0.924 | 0.592 | 1.74 | 5.03 | 3.99 | 1 | 0.865 |

Structures listed so far with an aryl methoxy group:

| Compound | odorant receptor activation [1] | odorant receptor activation [2] | odorant receptor activation [3] | odorant receptor activation [4] | odorant receptor activation [5] | odorant receptor activation [6] | odorant receptor activation [7] | odorant receptor activation [8] | odorant receptor activation [9] | odorant receptor activation [10] |
| --- | --- | --- | --- | --- | --- | --- | --- | --- | --- | --- |
| C=CCc1ccc(OC(C)=O)c(OC)c1 [eugenol acetate] | 1.66 | 1.66 | 1.32 | 1.6 | 1.51 | 1.74 | 0.898 | 1.23 | 1.94 | 1.73 |
| COc1cc(C)ccc1O [2-methoxy-4-methylphenol] | 1.1 | 0.744 | 1.02 | 1.38 | 5.06 | 0.7 | 0.723 | 0.898 | 1.75 | 1.01 |
| C=CCc1ccc(OC)c(OC)c1 [eugenol methyl ether] | 1.33 | 1.39 | 1.14 | 1.36 | 1.22 | 1.35 | 1.99 | 1.83 | 1.4 | 1.5 |
| CC=Cc1ccc(O)c(OC)c1 [isoeugenol] | 2.11 | 0.976 and 2.57 | 1.13 and 1.36 | 0.924 | 0.592 | 1.74 | 5.03 | 3.99 | 1 | 0.865 |
